# According to PMC8384837:
# Residue numbers refer to the chain shown, from its start. Some of the results follow. For some of these results: At the low end of the ranking, values are background and their order means little. For some of these results: The exact form of the protein is not confirmed.
# Tests used:
# Settings in all cases: yeast three-hybrid, YBZ-1, SC-Leu-His + 0.5 mM 3-AT, 4 days
# [1] = molecular target: T1, PUM1 PUF domain R5-PHQ R6-SWD C1007P + R1008H + N1043S + Y1044W + Q1047D (UniProt Q14671)
# T1 sequence: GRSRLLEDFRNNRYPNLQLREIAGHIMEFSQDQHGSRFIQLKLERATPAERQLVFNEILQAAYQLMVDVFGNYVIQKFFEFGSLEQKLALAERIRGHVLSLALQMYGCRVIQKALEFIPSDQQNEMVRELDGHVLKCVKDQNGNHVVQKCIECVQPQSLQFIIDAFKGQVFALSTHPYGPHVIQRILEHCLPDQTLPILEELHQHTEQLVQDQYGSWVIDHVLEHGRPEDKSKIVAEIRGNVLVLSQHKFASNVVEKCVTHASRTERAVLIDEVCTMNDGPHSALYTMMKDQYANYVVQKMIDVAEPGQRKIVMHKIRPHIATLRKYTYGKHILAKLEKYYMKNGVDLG
# [2] = molecular target: T2, PUM1 PUF domain R5-PHQ R6-SWD C1007P + R1008H + N1043S + Y1044W + Q1047D (Homo sapiens) (UniProt Q14671)
# T2 sequence: T1 sequence
# [3] = molecular target: T3, PUM1 PUF domain R6-SWD R7-NPG N1043S + Y1044W + Q1047D + S1079N + N1080P + E1083G (Homo sapiens) (UniProt Q14671)
# T3 sequence: T1 sequence with P180C, H181R, S252N, N253P, E256G
# [4] = molecular target: T4, PUM1 PUF domain R3-THE R4-TFR R7-NPG C935T + R936H + Q939E + N971T + H972F + Q975R + S1079N + N1080P + E1083G (UniProt Q14671)
# T4 sequence: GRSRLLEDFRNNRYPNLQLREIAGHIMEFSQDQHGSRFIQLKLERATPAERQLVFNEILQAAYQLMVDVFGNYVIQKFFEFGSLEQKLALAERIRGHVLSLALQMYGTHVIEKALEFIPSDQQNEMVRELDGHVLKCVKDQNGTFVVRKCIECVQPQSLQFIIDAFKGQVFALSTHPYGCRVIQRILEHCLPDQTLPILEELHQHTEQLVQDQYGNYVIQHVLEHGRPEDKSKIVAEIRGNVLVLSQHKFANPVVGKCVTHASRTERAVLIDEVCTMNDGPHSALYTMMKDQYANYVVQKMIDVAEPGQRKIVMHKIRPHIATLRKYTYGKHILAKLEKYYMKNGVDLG
sequence,measurement,setting,value
GGCUAGAACUAGUGGAUCCCCCGGCGCCCGGCGGCUCGAGCCCGGGUAAGAUUAAAGCGUCUGCAUGCCGCCGGGCGCCAUGCCUGCAGGUCGACUCUAGAAAACAUG,binding signal (log2 enrichment (interaction score)),[1],-7.26
GGCUAGAACUAGUGGAUCCCCCGGCGCCCGGCGGCUCGAGCCCGGGUAAGUGAAACAAGUCUGCAUGCCGCCGGGCGCCAUGCCUGCAGGUCGACUCUAGAAAACAUG,binding signal (log2 enrichment (interaction score)),[1],< -7.5
GGCUAGAACUAGUGGAUCCCCCGGCGCCCGGCGGCUCGAGCCCGGGUAAGUAUACGUAGUCUGCAUGCCGCCGGGCGCCAUGCCUGCAGGUCGACUCUAGAAAACAUG,binding signal (log2 enrichment (interaction score)),[1],-7.77
GGCUAGAACUAGUGGAUCCCCCGGCGCCCGGCGGCUCGAGCCCGGGUAAGCGGAAAUAGUCUGCAUGCCGCCGGGCGCCAUGCCUGCAGGUCGACUCUAGAAAACAUG,binding signal (log2 enrichment (interaction score)),[2],-1.04
same,binding signal (log2 enrichment (interaction score)),[3],-1.58
GGCUAGAACUAGUGGAUCCCCCGGCGCCCGGCGGCUCGAGCCCGGGUAAGUGGAGCUAGUCUGCAUGCCGCCGGGCGCCAUGCCUGCAGGUCGACUCUAGAAAACAUG,binding signal (log2 enrichment (interaction score)),[1],-7.27
GGCUAGAACUAGUGGAUCCCCCGGCGCCCGGCGGCUCGAGCCCGGGUAAGUAGAAGGGGUCUGCAUGCCGCCGGGCGCCAUGCCUGCAGGUCGACUCUAGAAAACAUG,binding signal (log2 enrichment (interaction score)),[1],-6.25
GGCUAGAACUAGUGGAUCCCCCGGCGCCCGGCGGCUCGAGCCCGGGUAAGUUACUAUAGUCUGCAUGCCGCCGGGCGCCAUGCCUGCAGGUCGACUCUAGAAAACAUG,binding signal (log2 enrichment (interaction score)),[1],-7.22
GGCUAGAACUAGUGGAUCCCCCGGCGCCCGGCGGCUCGAGCCCGGGUAAGCGUAAGAAGUCUGCAUGCCGCCGGGCGCCAUGCCUGCAGGUCGACUCUAGAAAACAUG,binding signal (log2 enrichment (interaction score)),[1],-8.59
GGCUAGAACUAGUGGAUCCCCCGGCGCCCGGCGGCUCGAGCCCGGGUAAGCUAAAAAAGUCUGCAUGCCGCCGGGCGCCAUGCCUGCAGGUCGACUCUAGAAAACAUG,binding signal (log2 enrichment (interaction score)),[1],< -7.33
GGCUAGAACUAGUGGAUCCCCCGGCGCCCGGCGGCUCGAGCCCGGGUAAGUUGAAUGAGUCUGCAUGCCGCCGGGCGCCAUGCCUGCAGGUCGACUCUAGAAAACAUG,binding signal (log2 enrichment (interaction score)),[1],< -7.29
GGCUAGAACUAGUGGAUCCCCCGGCGCCCGGCGGCUCGAGCCCGGGUAAGUAGACACGGUCUGCAUGCCGCCGGGCGCCAUGCCUGCAGGUCGACUCUAGAAAACAUG,binding signal (log2 enrichment (interaction score)),[1],-7.6
GGCUAGAACUAGUGGAUCCCCCGGCGCCCGGCGGCUCGAGCCCGGGUAAGAGGGAGACGUCUGCAUGCCGCCGGGCGCCAUGCCUGCAGGUCGACUCUAGAAAACAUG,binding signal (log2 enrichment (interaction score)),[1],< -8
GGCUAGAACUAGUGGAUCCCCCGGCGCCCGGCGGCUCGAGCCCGGGUAAGAGGCCAAAGUCUGCAUGCCGCCGGGCGCCAUGCCUGCAGGUCGACUCUAGAAAACAUG,binding signal (log2 enrichment (interaction score)),[1],-7.35
GGCUAGAACUAGUGGAUCCCCCGGCGCCCGGCGGCUCGAGCCCGGGUAAGUCAAAAUAGUCUGCAUGCCGCCGGGCGCCAUGCCUGCAGGUCGACUCUAGAAAACAUG,binding signal (log2 enrichment (interaction score)),[1],< -7.96
GGCUAGAACUAGUGGAUCCCCCGGCGCCCGGCGGCUCGAGCCCGGGUAAGAUGUAGGAGUCUGCAUGCCGCCGGGCGCCAUGCCUGCAGGUCGACUCUAGAAAACAUG,binding signal (log2 enrichment (interaction score)),[1],< -7.77
GGCUAGAACUAGUGGAUCCCCCGGCGCCCGGCGGCUCGAGCCCGGGUAAGUUGACUUCGUCUGCAUGCCGCCGGGCGCCAUGCCUGCAGGUCGACUCUAGAAAACAUG,binding signal (log2 enrichment (interaction score)),[1],< -7.39
GGCUAGAACUAGUGGAUCCCCCGGCGCCCGGCGGCUCGAGCCCGGGUAAGACUACGUGGUCUGCAUGCCGCCGGGCGCCAUGCCUGCAGGUCGACUCUAGAAAACAUG,binding signal (log2 enrichment (interaction score)),[4],-2.49
same,binding signal (log2 enrichment (interaction score)),[3],-1.57

# Random excerpt: two records from the list
sequence,measurement,setting,value
GGCUAGAACUAGUGGAUCCCCCGGCGCCCGGCGGCUCGAGCCCGGGUAAGUUACUAUAGUCUGCAUGCCGCCGGGCGCCAUGCCUGCAGGUCGACUCUAGAAAACAUG,binding signal (log2 enrichment (interaction score)),[1],-7.22
GGCUAGAACUAGUGGAUCCCCCGGCGCCCGGCGGCUCGAGCCCGGGUAAGCGUAAGAAGUCUGCAUGCCGCCGGGCGCCAUGCCUGCAGGUCGACUCUAGAAAACAUG,binding signal (log2 enrichment (interaction score)),[1],-8.59
